# Measured values published in PMC10696525.
# Sequences of proteins named here, by UniProt entry; tags and fusion partners are left off. A change or cut given only in a name is not applied to a line headed by its entry. Residues count along the entry.
# UniProt Q13308, 31-1070: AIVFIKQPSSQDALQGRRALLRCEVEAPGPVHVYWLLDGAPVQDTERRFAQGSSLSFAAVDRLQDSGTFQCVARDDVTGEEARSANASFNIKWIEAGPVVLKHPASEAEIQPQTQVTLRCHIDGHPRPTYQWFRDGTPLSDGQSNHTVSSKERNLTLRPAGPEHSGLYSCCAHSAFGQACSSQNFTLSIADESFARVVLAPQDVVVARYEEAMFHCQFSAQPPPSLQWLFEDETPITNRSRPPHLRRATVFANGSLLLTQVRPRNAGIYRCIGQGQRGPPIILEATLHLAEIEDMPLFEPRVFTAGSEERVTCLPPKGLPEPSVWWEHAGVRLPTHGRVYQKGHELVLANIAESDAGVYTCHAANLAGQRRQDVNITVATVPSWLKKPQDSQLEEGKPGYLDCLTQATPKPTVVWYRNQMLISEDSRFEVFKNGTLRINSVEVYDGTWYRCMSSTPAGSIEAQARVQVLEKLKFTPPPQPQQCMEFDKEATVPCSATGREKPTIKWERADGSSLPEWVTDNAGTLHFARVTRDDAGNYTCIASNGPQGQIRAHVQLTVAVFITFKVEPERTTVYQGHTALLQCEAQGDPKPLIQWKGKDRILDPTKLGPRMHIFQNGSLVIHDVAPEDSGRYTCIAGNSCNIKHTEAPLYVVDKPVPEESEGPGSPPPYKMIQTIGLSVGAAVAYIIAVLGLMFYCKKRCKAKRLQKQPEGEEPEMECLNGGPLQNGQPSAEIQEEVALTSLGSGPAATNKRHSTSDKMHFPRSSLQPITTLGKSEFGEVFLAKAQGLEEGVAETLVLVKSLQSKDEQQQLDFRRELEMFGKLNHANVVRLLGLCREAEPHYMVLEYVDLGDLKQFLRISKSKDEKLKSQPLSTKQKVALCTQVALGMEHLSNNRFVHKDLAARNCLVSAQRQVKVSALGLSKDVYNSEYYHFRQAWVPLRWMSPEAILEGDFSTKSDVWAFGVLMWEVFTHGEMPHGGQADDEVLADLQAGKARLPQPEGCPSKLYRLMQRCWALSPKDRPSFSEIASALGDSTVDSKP
# UniProt P08962, 2-238: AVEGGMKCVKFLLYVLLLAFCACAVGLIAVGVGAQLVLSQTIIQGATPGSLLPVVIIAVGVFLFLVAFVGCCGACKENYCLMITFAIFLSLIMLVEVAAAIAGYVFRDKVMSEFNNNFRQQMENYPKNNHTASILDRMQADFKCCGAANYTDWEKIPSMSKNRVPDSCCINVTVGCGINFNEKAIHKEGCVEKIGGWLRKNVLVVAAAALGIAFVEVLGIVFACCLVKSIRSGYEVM
# UniProt P16422, 24-314: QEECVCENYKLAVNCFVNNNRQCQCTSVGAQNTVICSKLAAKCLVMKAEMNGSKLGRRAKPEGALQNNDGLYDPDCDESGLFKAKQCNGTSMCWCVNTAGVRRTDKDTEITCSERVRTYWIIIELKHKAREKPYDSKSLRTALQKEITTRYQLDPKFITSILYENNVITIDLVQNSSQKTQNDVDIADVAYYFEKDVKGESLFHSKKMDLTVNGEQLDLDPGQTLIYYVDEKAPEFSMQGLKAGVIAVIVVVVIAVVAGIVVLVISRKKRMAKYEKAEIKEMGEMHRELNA
# UniProt Q04609: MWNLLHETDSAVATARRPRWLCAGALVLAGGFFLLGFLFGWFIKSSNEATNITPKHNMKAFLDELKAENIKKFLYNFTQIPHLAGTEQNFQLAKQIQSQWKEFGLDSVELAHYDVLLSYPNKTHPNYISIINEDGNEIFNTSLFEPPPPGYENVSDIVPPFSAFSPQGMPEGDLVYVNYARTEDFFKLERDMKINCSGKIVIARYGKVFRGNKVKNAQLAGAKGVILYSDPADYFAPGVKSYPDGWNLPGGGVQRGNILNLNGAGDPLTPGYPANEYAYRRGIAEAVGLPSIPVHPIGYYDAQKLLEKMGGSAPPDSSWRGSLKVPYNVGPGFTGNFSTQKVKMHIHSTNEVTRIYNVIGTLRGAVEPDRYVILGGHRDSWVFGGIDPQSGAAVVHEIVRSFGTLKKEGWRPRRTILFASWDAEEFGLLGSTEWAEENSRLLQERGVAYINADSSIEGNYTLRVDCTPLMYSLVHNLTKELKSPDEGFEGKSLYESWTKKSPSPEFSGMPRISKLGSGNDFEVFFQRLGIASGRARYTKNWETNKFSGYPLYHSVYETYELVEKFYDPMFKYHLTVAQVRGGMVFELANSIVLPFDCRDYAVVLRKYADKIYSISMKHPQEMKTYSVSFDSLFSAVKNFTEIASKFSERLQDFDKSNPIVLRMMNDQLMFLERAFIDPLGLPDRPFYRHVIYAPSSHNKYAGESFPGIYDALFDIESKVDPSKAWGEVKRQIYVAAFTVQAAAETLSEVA
# For at least one entry, the source does not settle the construct or the ends of the probe. Where cells or extracts were used, other partners may take part. For some assays here: At least one verdict was read from the data and is not stated in words by the source.
# Legend:
# Test in all cases: interferometric plasmonic microscopy (EVP capture on aptamer chip)
# [1] = molecular target: PTK7 on extracellular vesicles (UniProt Q13308); conditions: EVPs; Au chip modified with 1 uM aptamer, 5 uM TCEP, 1 uM MCH, rinsed with 1x PBS, blocked with 1% BSA; 15 min EVP binding; binding buffer; protein on the cell surface; single-stranded DNA
# [2] = molecular target: CD63 on extracellular vesicles (UniProt P08962); conditions: MCF-7 EVPs, specificity checked against BSA-coated surface; Au chip modified with 1 uM aptamer, 5 uM TCEP, 1 uM MCH, rinsed with 1x PBS, blocked with 1% BSA; 15 min EVP binding; binding buffer; protein on the cell surface; single-stranded DNA
# [3] = molecular target: EpCAM on extracellular vesicles (UniProt P16422); conditions: EVPs; Au chip modified with 1 uM aptamer, 5 uM TCEP, 1 uM MCH, rinsed with 1x PBS, blocked with 1% BSA; 15 min EVP binding; binding buffer; protein on the cell surface; single-stranded DNA
# [4] = molecular target: PSMA on extracellular vesicles (UniProt Q04609); conditions: EVPs, only exponential coefficients of the binding curves given, no Kd; Au chip modified with 1 uM aptamer, 5 uM TCEP, 1 uM MCH, rinsed with 1x PBS, blocked with 1% BSA; 15 min EVP binding; binding buffer; protein on the cell surface; single-stranded DNA
# [5] = molecular target: HER2 on extracellular vesicles (UniProt P04626); conditions: EVPs on HER2-modified chip; Au chip modified with 1 uM aptamer, 5 uM TCEP, 1 uM MCH, rinsed with 1x PBS, blocked with 1% BSA; 15 min EVP binding; binding …; protein on the cell surface; single-stranded DNA
sequence,measurement,setting,value
ATCTAACTGCTGCGCCGCCGGGAAAATACTGTACGGTTAGA [PTK7 aptamer],binding result,[1],binds
CACCCCACCTCGCTCCCGTGACACTAATGCTA [CD63 aptamer],binding result,[2],binds
CACTACAGAGGTTGCGTCTGTCCCACGTTGTCATGGGGGGTTGGCCTG [EpCAM aptamer],binding result,[3],binds
GCGTTTTCGCTTTTGCGTTTTGGGTCATCTGCTTACGATAGCAATGCT [PSMA aptamer],binding result,[4],binds
GGGCCGTCGAACACGAGCATGGTGCGTGGACCTAGGATGACCTGAGTACTGTCC [HER2 aptamer],binding result,[5],binds
